Assay results reported in patent US20240052048A1.
Results are given in words; binding and its absence hold for the method and conditions named. Some results given as binding are weak or reduced against the parent protein; the word gives no strength.

Experiments:
[1] = biological target: monkey BCMA (recombinant antigen, tag not stated for the assay) (monkey); assay: ELISA, FIG. 9(B)
[2] = biological target: monkey BCMA (recombinant antigen, tag not stated for the assay) (monkey); assay: ELISA, FIG. 4(B), monkey BCMA
[3] = biological target: monkey BCMA (recombinant antigen, tag not stated for the assay) (monkey); assay: ELISA, antigen coated 2 ug/mL

Measured: binding

B1: GSK2857916 (positive control antibody, not coupled to the toxin molecule) (antibody, V domains shown)
VH: QVQLVQSGAEVKKPGSSVKVSCKASGGTFSNYWMHWVRQAPGQGLEWMGATYRGHSDTYYNQKFKGRVTITADKSTSTAYMELSSLRSEDTAVYYCARGAIYDGYDVLDNWGQGTLVTVSS
VL: DIQMTQSPSSLSASVGDRVTITCSASQDISNYLNWYQQKPGKAPKLLIYYTSNLHSGVPSRFSGSGSGTDFTLTISSLQPEDFATYYCQQYRKLPWTFGQGTKLEIK
binds: [1] | [2] | [3]
